Experimental data taken from paper PMC12212275.
Results are given in words; binding and its absence hold for the method and conditions named. Binding seen in cells or lysates may run through a third protein. A yes stands for co-enrichment or nearness to the bait. Other partners may have been found.

By UniProt entry, the sequences of proteins in these tests, tags left out.
UniProt O00560: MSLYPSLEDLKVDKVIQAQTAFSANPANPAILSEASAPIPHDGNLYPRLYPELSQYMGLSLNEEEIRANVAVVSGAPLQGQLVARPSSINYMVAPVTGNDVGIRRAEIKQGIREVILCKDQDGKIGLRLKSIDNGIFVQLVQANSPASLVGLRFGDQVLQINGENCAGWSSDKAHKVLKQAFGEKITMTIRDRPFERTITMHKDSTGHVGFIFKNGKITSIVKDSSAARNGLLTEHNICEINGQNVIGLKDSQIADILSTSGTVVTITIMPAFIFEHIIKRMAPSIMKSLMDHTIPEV
UniProt Q9UHD2: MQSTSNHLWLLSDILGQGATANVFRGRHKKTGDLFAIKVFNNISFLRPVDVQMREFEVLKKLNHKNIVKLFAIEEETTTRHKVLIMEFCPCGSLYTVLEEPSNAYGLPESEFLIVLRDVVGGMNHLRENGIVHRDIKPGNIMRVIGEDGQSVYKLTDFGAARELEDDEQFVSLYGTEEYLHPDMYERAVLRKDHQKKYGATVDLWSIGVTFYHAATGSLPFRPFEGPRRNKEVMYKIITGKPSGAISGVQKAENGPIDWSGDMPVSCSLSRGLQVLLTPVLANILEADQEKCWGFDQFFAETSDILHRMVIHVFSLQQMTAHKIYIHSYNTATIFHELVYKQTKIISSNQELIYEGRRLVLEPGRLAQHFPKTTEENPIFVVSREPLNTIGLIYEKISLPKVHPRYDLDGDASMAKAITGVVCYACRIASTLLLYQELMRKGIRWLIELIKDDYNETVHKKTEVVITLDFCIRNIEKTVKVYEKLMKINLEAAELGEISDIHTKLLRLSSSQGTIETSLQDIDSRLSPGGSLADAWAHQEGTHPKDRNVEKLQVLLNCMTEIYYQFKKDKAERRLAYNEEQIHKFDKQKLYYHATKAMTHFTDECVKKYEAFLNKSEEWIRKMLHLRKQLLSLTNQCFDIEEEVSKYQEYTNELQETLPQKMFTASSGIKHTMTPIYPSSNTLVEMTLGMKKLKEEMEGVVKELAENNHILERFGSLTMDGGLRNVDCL

Molecular target: Flag-tagged syntenin-1 (human) (UniProt O00560)
Assay: affinity purification with mass spectrometry; Flag-syntenin-1 expressed in HEK293T; lysate with Flag magnetic beads overnight at 4 °C; washed with 1% Triton X-100 in PBS; control: cells with empty pcDNA3.4 plasmid

binding: binds
Substance: TBK1 (endogenous, HEK293T) (from UniProt Q9UHD2 1-729) (enzyme)
